# Values joined by “and” are separate entries in the source; they are usually repeats but may differ in a detail not shown here. Equal values may be shown once. Out of some 400,000 compounds screened, about 3,700 (0.93%) were called active. Inconclusive results, whose numbers are uncertain, are shown with a selection of clear calls. The call rests on the fitted dose curve; in most records, active means well fitted inhibition curve with a large enough effect; inconclusive means small, poorly fitted or top-dose-only effect, or another doubt; inactive means no such curve, though single readings can be large or run the other way. A potency beside an inconclusive call is a rough fit, not a confirmed value.
# The chains behind the UniProt entries cited, without tags or fusion partners. Where a name states a change or a piece, a line headed by the entry shows the natural chain unless it says otherwise.
# UniProt P11473: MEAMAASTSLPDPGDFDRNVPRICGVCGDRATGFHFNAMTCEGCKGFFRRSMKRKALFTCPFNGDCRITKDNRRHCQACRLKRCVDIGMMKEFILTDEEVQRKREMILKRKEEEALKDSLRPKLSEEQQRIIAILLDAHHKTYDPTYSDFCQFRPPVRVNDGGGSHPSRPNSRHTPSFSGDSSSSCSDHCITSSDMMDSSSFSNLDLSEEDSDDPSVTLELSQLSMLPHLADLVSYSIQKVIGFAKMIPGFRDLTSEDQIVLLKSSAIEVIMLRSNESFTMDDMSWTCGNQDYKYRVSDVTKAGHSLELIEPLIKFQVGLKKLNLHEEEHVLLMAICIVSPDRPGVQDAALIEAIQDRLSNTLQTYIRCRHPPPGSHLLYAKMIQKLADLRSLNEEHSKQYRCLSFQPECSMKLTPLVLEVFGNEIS
# Molecular target: Vitamin D3 receptor (Homo sapiens) (UniProt P11473)
# Experiment: Inhibitors of the vitamin D receptor (VDR): qHTS
# Details: VDR-SRC2-3 peptide fluorescence polarization, 2 h; max response, negative = inhibition: stronger effect = lower value
# In short: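 Signal is fluorescence polarization, reporting how far test compounds block the interaction of VDR with the SRC2-3 coregulator peptide after a 2 h room-temperature incubation.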
# On the % scale 0 is the no-effect control and ±100 the full control effect; potency means the concentration at half of the fitted maximal effect.
Compound,"max response, negative = inhibition",Potency
Cc1ccc(CC(=O)NC(C)CCc2ccccc2)cc1 (stereo not given),inactive: 15.5%,
Cc1c(C(=O)OC2CCC(C)CC2)[nH]c2c1C(=O)CC(c1ccccc1Cl)C2 (stereo not given),,"inconclusive: 0.631 µM [inhibitor, full curve, poor fit]"
CC(C)C[C@H](N)c1nnc(S(=O)(=O)Cc2cccc(F)c2)o1,,active: 17.8 µM
Cc1cc(NC(=O)CSc2nc(-c3cccs3)nc3ccccc23)no1,inactive: 9.4%,
Cc1ccc(NC(=O)Cn2nnc(C(=O)NCCc3ccccc3)c2N)c(C)c1,,"inconclusive: 39.8 µM [inhibitor, partial curve, poor fit]"
COc1ccccc1NC(c1cccnc1)c1ccc2cccnc2c1O (stereo not given),,active: 50.1 µM
Nc1cc(S(=O)(=O)N2CCOCC2)ccc1N1CCCCC1,,active: 25.1 µM
CC(C)NC(=O)CSc1nc2[nH]ncc2c(=O)[nH]1,inactive: -23.9%,
CC(C)CCn1c(O)c(N=Nc2ccccn2)c2ccccc21,inactive: -13%,
CCOC(=O)C(C(=O)OCC)c1cc(Br)c2noc3c2c1C(=O)c1ccccc1-3,,"inconclusive: 63.1 µM [inhibitor, partial curve, poor fit]"
O=C(O)CC(SCC(=O)Nc1ccc(S(=O)(=O)N2CCCC2)cc1)C(=O)O (stereo not given),,"inconclusive: 89.1 µM [inhibitor, single point]"
C=CCSc1nnc(N2C(=O)C(O)=C(C(=O)c3ccco3)C2c2ccc(F)cc2)s1 (stereo not given),,"inconclusive: 79.4 µM [inhibitor, single point]"
CCOC(=O)c1cnc2c(F)ccc(F)c2c1Sc1ccccc1,,"inconclusive: 28.2 µM [inhibitor, full curve]"
O=C(CCCSc1ccccc1)Nc1nc(-c2ccccn2)cs1,,"inconclusive: 89.1 µM [inhibitor, single point]"
O=C1/C(=C/c2cccs2)COc2ccccc21,,"inconclusive: 89.1 µM [inhibitor, single point]"
COc1ccccc1OCCn1cc(/C=N/NC(N)=S)c2ccccc21,inactive: 6.15%,
CCCNC(=O)CN1C(=O)NC(Cc2c[nH]c3ccccc23)C1=O (stereo not given),,"inconclusive: 89.1 µM [inhibitor, single point]"
O=C(NCC1CCCO1)c1ccc(CSCc2cccc(F)c2)o1 (stereo not given),,"inconclusive: 50.1 µM [inhibitor, partial curve, poor fit]"
C/C(=N\O)c1ccn(S(=O)(=O)c2ccc(Cl)cc2)c1,,"inconclusive: 100 µM [inhibitor, partial curve, poor fit]"
Cc1nnc(-c2cccc(Br)c2)c2cn(-c3cccc(Br)c3)nc12,inactive: -23.9%,
COc1cc(C2CC(=O)N3CN(Cc4ccccc4)CSC3=C2C#N)ccc1OCc1ccccc1 (stereo not given),,active: 22.4 µM
Clc1ccc(N=c2ssnc2Cl)cc1,,active: 25.1 µM
COc1ccc(S(=O)(=O)NC2CC2)cc1C(=O)N1CCOCC1,,"inconclusive: 31.6 µM [inhibitor, single point]"
COC(=O)CCC(=O)OC1(C)C(=O)C=C2C=C(C3CC3)N(Cc3ccco3)C=C2C1=O (stereo not given),,"inconclusive: 89.1 µM [inhibitor, partial curve, poor fit]"

# By substructure, the compounds so far with fluorine (4)
Compound,"max response, negative = inhibition",Potency
CC(C)C[C@H](N)c1nnc(S(=O)(=O)Cc2cccc(F)c2)o1,,active: 17.8 µM
C=CCSc1nnc(N2C(=O)C(O)=C(C(=O)c3ccco3)C2c2ccc(F)cc2)s1 (stereo not given),,"inconclusive: 79.4 µM [inhibitor, single point]"
CCOC(=O)c1cnc2c(F)ccc(F)c2c1Sc1ccccc1,,"inconclusive: 28.2 µM [inhibitor, full curve]"
O=C(NCC1CCCO1)c1ccc(CSCc2cccc(F)c2)o1 (stereo not given),,"inconclusive: 50.1 µM [inhibitor, partial curve, poor fit]"

# Two compounds picked at random from the list so far:
Compound,"max response, negative = inhibition",Potency
COc1ccc(S(=O)(=O)NC2CC2)cc1C(=O)N1CCOCC1,,"inconclusive: 31.6 µM [inhibitor, single point]"
O=C(NCC1CCCO1)c1ccc(CSCc2cccc(F)c2)o1 (stereo not given),,"inconclusive: 50.1 µM [inhibitor, partial curve, poor fit]"

# Continued.

Compound,"max response, negative = inhibition",Potency
COc1ccc(C(=O)OC(C)C(=O)NC2CCCC2)cc1S(=O)(=O)N1CCOCC1 (stereo not given),,"inconclusive: 89.1 µM [inhibitor, single point]"
COCCNC(=S)NN=C1CCCCC1,inactive: -4.97%,
COc1ccccc1Oc1nnnn1-c1ccc(C(N)=O)cc1,inactive: -1.17%,
Clc1ccc(C(Cn2ccnc2)OCc2ccsc2Cl)c(Cl)c1 (stereo not given),,"inconclusive: 39.8 µM [inhibitor, full curve]"
O=C(NC(=S)Nc1ccccc1C(=O)O)c1cncc(Br)c1,,active: 50.1 µM
COc1ccccc1NS(=O)(=O)c1cc(NC(=O)C2CCC2)ccc1N1CCCCC1,,"inconclusive: 50.1 µM [inhibitor, partial curve, poor fit]"
CC(C)(C)c1ccc(S(=O)(=O)/C=C\C#N)cc1,,active: 2 µM
Nc1n[nH]c(=S)n1-c1ccc(Cl)cc1,,"inconclusive: 89.1 µM [inhibitor, single point]"
CCOc1ccc2c(O)csc2c1,,"inconclusive: 56.2 µM [inhibitor, partial curve]"
COc1ccc(OC)c2c1nc1n2CCS1,,"inconclusive: 50.1 µM [inhibitor, partial curve, poor fit]"
O=C1C(Cc2ccccc2)Nc2ncnc(N3CCOCC3)c2N1Cc1ccc(Cl)cc1 (stereo not given),inactive: -10.6%,
COc1ccc(-c2noc(CCCC(=O)NC3CCCCC3)n2)cc1OC,,"inconclusive: 89.1 µM [inhibitor, single point]"
C=CCOc1ccccc1/C=c1\sc2nc(=O)c(C)nn2c1=O,,active: 70.8 µM
CCOC(=O)/C(=C\c1ccc(OC(F)F)cc1)C1=Nn2c(nnc2-c2ccc(Cl)cc2)SC1,,active: 15.8 µM
Cc1ccc(C(=O)NNC(=O)CSc2n[nH]c(-c3cccnc3)n2)cc1,,"inconclusive: 79.4 µM [inhibitor, single point]"
O=C1Nc2ccccc2/C1=C/c1ccnc2ccccc12,,"inconclusive: 79.4 µM [inhibitor, single point]"
Cc1ccc2c(Cl)c(C)c(N3CCCC3)nc2n1,inactive: -16.8%,
C=CC(C1=CC(=O)C(OC)=CC1=O)c1ccccc1 (stereo not given),,active: 8.91 µM
CCCN(C(=O)COC(=O)c1nc2nccc(C)n2n1)C1CCS(=O)(=O)C1 (stereo not given),,"inconclusive: 89.1 µM [inhibitor, partial curve]"
Cc1cc(C)cc(S(=O)(=O)c2cnc3ccccc3n2)c1,,active: 39.8 µM
CCCCCCCCCCCCOCCOCCOCCOCCOCCOCCOCCOCCOCCO,inactive: -15.5% and inactive: -8.94%,
COc1ccc(NC(=O)C2CCCN2C(=O)NCc2ccccc2)cc1 (stereo not given),,active: 70.8 µM
COc1ccc(N/N=C(\C#N)C(=O)NCCc2ccc(OC)c(OC)c2)cc1,inactive: -16.2%,
Cn1cccc1/C=C1\SC(=O)N(c2ccc(O)cc2)C1=O,inactive: -6.86%,

Compound,"max response, negative = inhibition",Potency
O=C(Nc1nc(-c2ccccn2)cs1)c1cccc(S(=O)(=O)N2CCOCC2)c1,,"inconclusive: 100 µM [inhibitor, single point]"
Cc1ccc(NC(=O)c2cc(=O)n(Cc3ccccc3)c(=O)[nH]2)cc1C,,"inconclusive: 79.4 µM [inhibitor, single point]"
COc1ccccc1-c1cc(C(F)(F)F)nc(S(=O)(=O)CCCC(=O)NC(C)C)n1,,"inconclusive: 25.1 µM [inhibitor, full curve, poor fit]"
O=S(=O)(c1ccc2c(c1)OCCCO2)N1CCNCC1,inactive: 0.821%,
COC(=O)c1ccc(Cl)c(S(=O)(=O)N2CCCC2)c1,inactive: 10.8%,
Cn1cccc1C(=O)N1CCC2(CCCN(c3ccccc3)C2)CC1,,"inconclusive: 79.4 µM [inhibitor, partial curve]"
Cc1c(C(=O)NN2CCCCC2)nn(-c2ccc(Cl)cc2Cl)c1-c1ccc(Cl)cc1,,"inconclusive: 89.1 µM [inhibitor, single point]"
CCN1CCN(C(c2cccnc2)c2cc(Cl)c3cccnc3c2O)CC1 (stereo not given),,"inconclusive: 25.1 µM [inhibitor, full curve, poor fit]"
CSc1nnc(NC(=O)c2nc(S(=O)(=O)Cc3ccc(C)cc3)ncc2Cl)s1,,active: 11.2 µM
Cc1oc(-c2cccs2)nc1CS(=O)CC(=O)NCCc1ccccc1 (stereo not given),,"inconclusive: 100 µM [inhibitor, partial curve, poor fit]"
CCC(=O)OCCNc1cc(Sc2nc3ccccc3[nH]2)c2nonc2c1[N+](=O)[O-],,"inconclusive: 8.91 µM [inhibitor, full curve, poor fit]"
CCCN1CCc2c(sc(NC(=O)CCS(=O)(=O)c3ccccc3)c2C(N)=O)C1,inactive: -12%,
COc1ccccc1NS(=O)(=O)c1cc(NC(=O)c2ccc(NC(C)=O)cc2)ccc1N1CCOCC1,,"inconclusive: 89.1 µM [inhibitor, single point]"
CCN(CC)CC(C)(C)C(=O)/C=C/c1ccc(/C=C/C(=O)C(C)(C)CN(CC)CC)cc1,,"inconclusive: 20 µM [inhibitor, partial curve, poor fit]"
COC(C/C=C/C(=O)COCc1ccccc1)OC,,"inconclusive: 89.1 µM [inhibitor, partial curve, poor fit]"
O=[N+]([O-])c1ccc(Sc2cccc3cccnc23)c([N+](=O)[O-])c1,,"inconclusive: 89.1 µM [inhibitor, partial curve]"
COC(=O)c1cc(O)cc(OC)c1Oc1cc(C)cc(O)c1C(=O)O,,"inconclusive: 100 µM [inhibitor, partial curve, poor fit]"
CC(=O)C1=C(O)C(=O)N(C)C1c1ccccc1[N+](=O)[O-] (stereo not given),,"inconclusive: 50.1 µM [inhibitor, partial curve, poor fit]"
O=C(NCc1n[nH]c(=S)n1-c1ccc(F)cc1)c1ccc(S(=O)(=O)N2CCOCC2)cc1,inactive: -21%,
Cc1ccc(C(=O)COC(=O)CCN2C(=O)C3C4CCC(C4)C3C2=O)cc1[N+](=O)[O-] (stereo not given),inactive: -13.6%,
O=C(CC1CCCC1)Nc1cc(S(=O)(=O)N2CCOCC2)ccc1O,,"inconclusive: 56.2 µM [inhibitor, partial curve, poor fit]"
CCOC(=O)N1CCN(c2cc(NCCC(=O)O)c3c4c(onc24)-c2ccccc2C3=O)CC1,,"inconclusive: 14.1 µM [inhibitor, partial curve, poor fit]"

# Source: PubChem BioAssay AID504847 (National Center for Advancing Translational Sciences (NCATS), 2011)
